Measured values from article PMC9177983.

What was measured:
[1] = biological target: T1, Mfd (Escherichia coli) (UniProt P30958); experiment: SPR; settings: 0.5 mM ATPgS, SPR: 30 mM Tris/HCl pH 7.6, 40 mM KCl, 5 mM MgCl2, 0.005% P20, 0.25 mM EDTA, 0.5 mM DTT, 20 C, recombinant protein
T1 sequence (looked up, limits assumed): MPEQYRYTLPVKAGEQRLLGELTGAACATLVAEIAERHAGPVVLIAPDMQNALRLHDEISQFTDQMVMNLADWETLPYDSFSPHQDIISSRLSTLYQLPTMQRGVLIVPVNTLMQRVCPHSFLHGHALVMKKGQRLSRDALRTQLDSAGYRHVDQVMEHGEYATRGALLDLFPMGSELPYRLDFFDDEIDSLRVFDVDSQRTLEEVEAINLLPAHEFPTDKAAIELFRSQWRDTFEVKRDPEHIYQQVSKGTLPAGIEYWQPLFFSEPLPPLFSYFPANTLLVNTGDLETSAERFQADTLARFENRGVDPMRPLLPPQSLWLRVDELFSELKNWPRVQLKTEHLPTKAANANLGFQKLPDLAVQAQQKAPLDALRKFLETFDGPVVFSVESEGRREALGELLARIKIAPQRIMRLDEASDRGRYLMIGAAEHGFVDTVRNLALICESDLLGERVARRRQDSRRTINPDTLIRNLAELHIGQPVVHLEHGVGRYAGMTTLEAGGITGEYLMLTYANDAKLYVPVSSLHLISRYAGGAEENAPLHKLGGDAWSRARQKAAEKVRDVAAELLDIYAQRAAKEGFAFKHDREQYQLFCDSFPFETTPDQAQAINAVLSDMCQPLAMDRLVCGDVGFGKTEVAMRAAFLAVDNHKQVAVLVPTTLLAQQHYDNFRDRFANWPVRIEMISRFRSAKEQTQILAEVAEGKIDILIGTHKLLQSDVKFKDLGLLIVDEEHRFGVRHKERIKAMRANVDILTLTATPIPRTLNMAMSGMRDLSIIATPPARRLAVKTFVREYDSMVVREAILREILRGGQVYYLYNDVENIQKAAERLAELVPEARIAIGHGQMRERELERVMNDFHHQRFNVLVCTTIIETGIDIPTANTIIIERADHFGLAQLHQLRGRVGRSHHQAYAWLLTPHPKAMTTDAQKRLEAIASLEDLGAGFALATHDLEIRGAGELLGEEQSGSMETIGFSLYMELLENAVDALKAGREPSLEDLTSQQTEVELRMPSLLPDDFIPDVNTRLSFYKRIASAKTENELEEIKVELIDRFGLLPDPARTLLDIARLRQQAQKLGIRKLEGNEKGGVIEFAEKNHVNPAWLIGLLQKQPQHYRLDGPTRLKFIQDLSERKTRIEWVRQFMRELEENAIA

[2] = biological target: T2, Mfd(R953A) (Escherichia coli) (UniProt P30958); experiment: SPR; settings: 0.5 mM ATPgS, 5 mM MgCl2, 0.005% P20, 0.25 mM EDTA, 0.5 mM DTT, 20 C, recombinant protein, label: 5' biotin on AS18
T2 sequence (looked up, limits assumed): T1 sequence (looked up, limits assumed) with R953A

[3] = biological target: T2, Mfd(R953A) (Escherichia coli); experiment: smFRET; settings: 1 mM ATP, no high-FRET (ssDNA compaction), ~0.1 FRET population present; smFRET: 20 mM Tris/HCl pH 8.0, 40 mM KCl, 5 mM MgCl2, 1 mM 2-mercaptoethanol; recombinant protein; label: 5' Cy3, 5' biotin and 3' Cy5 on AS18
[4] = biological target: T3, Mfd(E730Q) (Escherichia coli) (UniProt P30958); experiment: smFRET; settings: ATP, high-FRET states extremely rare; smFRET: 20 mM Tris/HCl pH 8.0, 40 mM KCl, 5 mM MgCl2, 1 mM 2-mercaptoethanol; recombinant protein; label: 5' Cy3, 5' biotin and 3' Cy5 on AS18
T3 sequence (looked up, limits assumed): T1 sequence (looked up, limits assumed) with E730Q

[5] = Kd in figure, label: 5' biotin on AS18
[6] = stronger than dT6, approaches wild type, SPR: 30 mM Tris/HCl pH 7.6, 40 mM KCl
[7] = Kd independent of overhang length, label: 3' biotin on S18

TTTTTTTTTGCCTCGCTGCCGTCGCCA / TGGCGACGGCAGCGAGGC [dT9_S18:bio_AS18]
binding result [1, 5]: binds more weakly
binding result [2, 6]: binds

TGGCGACGGCAGCGAGGCTTTTTT / GCCTCGCTGCCGTCGCCA [AS18_dT6:S18_bio]
binding result [1, 7]: binds

TTTGCCTCGCTGCCGTCGCCA / TGGCGACGGCAGCGAGGC [dT3_S18:bio_AS18]
binding result [1, 5]: binds
binding result ([2]; affinity falls with overhang up to dT6, SPR: 30 mM Tris/HCl pH 7.6, 40 mM KCl): binds more weakly

TGGCGACGGCAGCGAGGCTTTTTTTTT / GCCTCGCTGCCGTCGCCA [AS18_dT9:S18_bio]
binding result [1, 7]: binds

TTTTTTTTTTTTTTTTTTTTTTTTTTTTTTTTTTTTTTTTGCCTCGCTGCCGTCGCCA / TGGCGACGGCAGCGAGGC [Cy3_dT40_S18:bio_AS18_Cy5]
binding result [3]: binds more weakly
binding result [4]: binds more weakly

TGGCGACGGCAGCGAGGCTTT / GCCTCGCTGCCGTCGCCA [AS18_dT3:S18_bio]
binding result [1, 7]: binds

TGGCGACGGCAGCGAGGCTTTTTTTTTTTT / GCCTCGCTGCCGTCGCCA [AS18_dT12:S18_bio]
binding result [1, 7]: binds

TTTTTTTTTTTTGCCTCGCTGCCGTCGCCA / TGGCGACGGCAGCGAGGC [dT12_S18:bio_AS18]
binding result [1, 5]: binds more weakly
binding result [2, 6]: binds

TTTTTTGCCTCGCTGCCGTCGCCA / TGGCGACGGCAGCGAGGC [dT6_S18:bio_AS18]
binding result [1, 5]: binds

TGGCGACGGCAGCGAGGCTTTTTTTTTTTTTTT / GCCTCGCTGCCGTCGCCA [AS18_dT15:S18_bio]
binding result [1, 7]: binds

TTTTTTTTTTTTTTTGCCTCGCTGCCGTCGCCA / TGGCGACGGCAGCGAGGC [dT15_S18:bio_AS18]
binding result [2, 6]: binds

Where a chain is given by its changes, count along the chain named. Construct, isoform or probe ends are uncertain for at least one entry. The comparison behind a weaker result is the experiment's own reference, which may not be listed here. For part of these data: At least one verdict rests on a figure or table, not on a statement of the authors. Where a protein sequence is shown, tags need not be part of it.
